Data taken from doi:10.1101/299610.
Results are given in words; binding and its absence hold for the method and conditions named. In cells and extracts the contact can be indirect. Some binding calls cover weakened binding; strength is not graded here.

The chains behind the UniProt entries cited, without tags or fusion partners.
UniProt Q15836: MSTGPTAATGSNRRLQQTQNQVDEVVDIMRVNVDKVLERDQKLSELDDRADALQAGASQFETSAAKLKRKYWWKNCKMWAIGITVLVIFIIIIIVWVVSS

Biological target: GFP-VAMP3 (UniProt Q15836)
Assay: co-IP

B1: mCherry-WDFY2 (protein, UniProt Q96P53 1-400)
chain: MAAEIQPKPLTRKPILLQRMEGSQEVVNMAVIVPKEEGVISVSEDRTVRVWLKRDSGQYWPSVYHAMPSPCSCMSFNPETRRLSIGLDNGTISEFILSEDYNKMTPVKNYQAHQSRVTMILFVLELEWVLSTGQDKQFAWHCSESGQRLGGYRTSAVASGLQFDVETRHVFIGDHSGQVTILKLEQENCTLVTTFRGHTGGVTALCWDPVQRVLFSGSSDHSVIMWDIGGRKGTAIELQGHNDRVQALSYAQHTRQLISCGGDGGIVVWNMDVERQETPEWLDSDSCQKCDQPFFWNFKQMWDSKKIGLRQHHCRKCGKAVCGKCSSKRSSIPLMGFEFEVRVCDSCHEAITDEERAPTATFHDSKHNIVHVHFDATRGWLLTSGTDKVIKLWDMTPVVS
- binding: binds
